# Assay results reported in patent publication US20180169010A1, “LONG ACTING LIRAGLUTIDE COMPOSITIONS” (Sun Pharma Advanced Research Company Limited, priority 2015, published 2018).
# At least one structure is not confirmed: it was looked up by name or label, or the drawing left a doubt.
# Legend:
# [1] = Interaction study (gel formation) of GLP-1 agonist with polyoxyethylene-polyoxypropylene block copolymer (Poloxamer 188) in aqueous vehicle; type: physicochemical; settings: Poloxamer 188 in WFI; FIG. 1
# [2] = Interaction study (gel formation) of GLP-1 agonist with polyvinyl caprolactam-polyvinyl acetate-polyethylene glycol graft copolymer (Soluplus) in aqueous vehicle; type: physicochemical; settings: Soluplus in WFI; FIG. 2
structure (smiles),measurement,setting,value
CCCCCCCCCCCCCCCC(=O)N[C@@H](CCC(=O)NCCCC[C@H](NC(=O)[C@H](C)NC(=O)[C@H](C)NC(=O)[C@H](CCC(N)=O)NC(=O)CNC(=O)[C@H](CCC(=O)O)NC(=O)[C@H](CC(C)C)NC(=O)[C@H](Cc1ccc(O)cc1)NC(=O)[C@H](CO)NC(=O)[C@H](CO)NC(=O)[C@@H](NC(=O)[C@H](CC(=O)O)NC(=O)[C@H](CO)NC(=O)[C@@H](NC(=O)[C@H](Cc1ccccc1)NC(=O)[C@@H](NC(=O)CNC(=O)[C@H](CCC(=O)O)NC(=O)[C@H](C)NC(=O)[C@@H](N)Cc1cnc[nH]1)[C@@H](C)O)[C@@H](C)O)C(C)C)C(=O)N[C@@H](CCC(=O)O)C(=O)N[C@@H](Cc1ccccc1)C(=O)N[C@H](C(=O)N[C@@H](C)C(=O)N[C@@H](Cc1c[nH]c2ccccc12)C(=O)N[C@@H](CC(C)C)C(=O)N[C@H](C(=O)N[C@@H](CCCNC(=N)N)C(=O)NCC(=O)N[C@@H](CCCNC(=N)N)C(=O)NCC(=O)O)C(C)C)[C@@H](C)CC)C(=O)O [liraglutide],Gel formation with polyoxyethylene-polyoxypropylene block copolymer in an aqueous vehicle,[1],forms a gel
same,Gel formation with Soluplus in an aqueous vehicle,[2],forms a gel
